Laboratory results as given in the supplement of paper PMC7666118.
This is one part of the list.

By UniProt entry, the sequences of proteins in these tests, tags left out. Where a name states a change or a piece, a line headed by the entry shows the natural chain unless it says otherwise.
UniProt Q9HCK8: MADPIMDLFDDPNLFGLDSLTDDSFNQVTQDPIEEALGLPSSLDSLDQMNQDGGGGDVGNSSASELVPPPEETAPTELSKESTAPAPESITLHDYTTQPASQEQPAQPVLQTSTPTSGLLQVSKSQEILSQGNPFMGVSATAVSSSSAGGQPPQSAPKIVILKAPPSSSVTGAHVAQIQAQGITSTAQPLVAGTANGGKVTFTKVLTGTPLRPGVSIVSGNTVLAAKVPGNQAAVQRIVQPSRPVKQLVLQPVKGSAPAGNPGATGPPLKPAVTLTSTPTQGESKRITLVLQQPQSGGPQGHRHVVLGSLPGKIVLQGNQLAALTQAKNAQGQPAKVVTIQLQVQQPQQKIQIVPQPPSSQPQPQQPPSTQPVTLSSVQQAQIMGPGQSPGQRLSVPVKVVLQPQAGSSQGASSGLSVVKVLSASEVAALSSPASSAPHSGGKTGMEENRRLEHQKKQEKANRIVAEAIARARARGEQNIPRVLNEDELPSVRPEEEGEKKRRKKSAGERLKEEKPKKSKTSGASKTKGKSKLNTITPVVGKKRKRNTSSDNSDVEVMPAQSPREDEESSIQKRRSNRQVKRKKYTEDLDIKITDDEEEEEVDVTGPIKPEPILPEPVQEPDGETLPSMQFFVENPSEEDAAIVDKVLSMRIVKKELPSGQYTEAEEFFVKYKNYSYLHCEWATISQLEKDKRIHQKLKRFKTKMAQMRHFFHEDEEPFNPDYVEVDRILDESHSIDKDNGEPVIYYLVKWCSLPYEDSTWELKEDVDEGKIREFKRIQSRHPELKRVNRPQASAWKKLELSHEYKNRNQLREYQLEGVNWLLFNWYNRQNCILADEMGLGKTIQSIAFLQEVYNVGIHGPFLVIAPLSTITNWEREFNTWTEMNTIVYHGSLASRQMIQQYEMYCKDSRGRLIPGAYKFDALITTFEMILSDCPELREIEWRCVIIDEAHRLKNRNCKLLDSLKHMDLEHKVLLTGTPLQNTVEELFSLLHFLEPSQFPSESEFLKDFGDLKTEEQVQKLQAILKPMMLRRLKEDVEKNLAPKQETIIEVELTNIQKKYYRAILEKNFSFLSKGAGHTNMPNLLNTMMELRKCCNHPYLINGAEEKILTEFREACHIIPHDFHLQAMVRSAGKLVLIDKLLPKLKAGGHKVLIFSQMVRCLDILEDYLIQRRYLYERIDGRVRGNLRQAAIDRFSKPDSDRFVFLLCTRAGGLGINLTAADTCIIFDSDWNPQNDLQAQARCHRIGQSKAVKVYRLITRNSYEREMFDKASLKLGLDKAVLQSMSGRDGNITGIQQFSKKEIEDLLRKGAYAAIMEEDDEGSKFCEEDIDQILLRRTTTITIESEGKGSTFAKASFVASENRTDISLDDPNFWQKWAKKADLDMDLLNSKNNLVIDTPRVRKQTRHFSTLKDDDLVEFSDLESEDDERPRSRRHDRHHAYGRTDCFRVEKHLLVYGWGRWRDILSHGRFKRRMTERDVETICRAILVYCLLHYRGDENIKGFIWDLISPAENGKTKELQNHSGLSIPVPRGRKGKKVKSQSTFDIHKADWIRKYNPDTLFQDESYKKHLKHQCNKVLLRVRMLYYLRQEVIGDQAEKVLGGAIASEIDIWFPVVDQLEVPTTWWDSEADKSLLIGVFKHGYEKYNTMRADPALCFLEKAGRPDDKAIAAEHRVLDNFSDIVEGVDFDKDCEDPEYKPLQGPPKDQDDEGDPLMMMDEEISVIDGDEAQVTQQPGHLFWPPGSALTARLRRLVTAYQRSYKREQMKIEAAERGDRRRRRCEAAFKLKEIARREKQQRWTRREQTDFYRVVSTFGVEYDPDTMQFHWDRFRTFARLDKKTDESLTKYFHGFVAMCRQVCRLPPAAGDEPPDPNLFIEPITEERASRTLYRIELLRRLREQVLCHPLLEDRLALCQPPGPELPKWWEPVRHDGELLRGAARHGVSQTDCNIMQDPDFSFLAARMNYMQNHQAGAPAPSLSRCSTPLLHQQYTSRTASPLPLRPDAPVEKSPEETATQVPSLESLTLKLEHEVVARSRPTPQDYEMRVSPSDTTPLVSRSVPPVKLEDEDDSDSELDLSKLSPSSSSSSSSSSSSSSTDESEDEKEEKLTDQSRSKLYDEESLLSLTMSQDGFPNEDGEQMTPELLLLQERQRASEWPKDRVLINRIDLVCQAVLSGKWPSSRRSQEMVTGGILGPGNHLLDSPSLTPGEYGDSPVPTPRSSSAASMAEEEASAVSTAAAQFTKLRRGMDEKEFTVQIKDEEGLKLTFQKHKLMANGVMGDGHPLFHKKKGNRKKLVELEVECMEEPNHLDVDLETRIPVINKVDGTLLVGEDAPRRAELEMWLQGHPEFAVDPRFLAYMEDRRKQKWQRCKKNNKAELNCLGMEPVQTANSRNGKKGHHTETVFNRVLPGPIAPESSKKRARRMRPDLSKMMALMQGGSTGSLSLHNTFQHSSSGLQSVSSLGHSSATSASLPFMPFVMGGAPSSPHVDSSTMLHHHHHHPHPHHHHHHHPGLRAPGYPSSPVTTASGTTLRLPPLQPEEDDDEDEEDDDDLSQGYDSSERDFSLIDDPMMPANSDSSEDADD
UniProt O76031, whole entry: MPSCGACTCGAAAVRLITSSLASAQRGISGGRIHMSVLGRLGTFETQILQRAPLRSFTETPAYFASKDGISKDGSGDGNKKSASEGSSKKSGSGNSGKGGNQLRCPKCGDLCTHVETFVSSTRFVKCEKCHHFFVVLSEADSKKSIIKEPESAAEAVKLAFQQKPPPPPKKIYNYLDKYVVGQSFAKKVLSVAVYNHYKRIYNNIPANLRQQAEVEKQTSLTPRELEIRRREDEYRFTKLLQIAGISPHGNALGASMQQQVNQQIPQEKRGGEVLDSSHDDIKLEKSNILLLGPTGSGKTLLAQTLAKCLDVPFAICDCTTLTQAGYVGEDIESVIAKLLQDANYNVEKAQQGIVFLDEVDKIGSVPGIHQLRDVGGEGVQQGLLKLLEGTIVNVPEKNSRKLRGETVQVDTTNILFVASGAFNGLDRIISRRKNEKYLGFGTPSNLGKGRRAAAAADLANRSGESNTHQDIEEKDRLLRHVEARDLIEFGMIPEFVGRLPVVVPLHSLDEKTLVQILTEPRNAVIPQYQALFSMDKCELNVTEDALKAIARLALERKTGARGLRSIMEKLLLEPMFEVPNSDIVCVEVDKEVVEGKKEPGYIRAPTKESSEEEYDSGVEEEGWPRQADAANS
UniProt Q96FZ7: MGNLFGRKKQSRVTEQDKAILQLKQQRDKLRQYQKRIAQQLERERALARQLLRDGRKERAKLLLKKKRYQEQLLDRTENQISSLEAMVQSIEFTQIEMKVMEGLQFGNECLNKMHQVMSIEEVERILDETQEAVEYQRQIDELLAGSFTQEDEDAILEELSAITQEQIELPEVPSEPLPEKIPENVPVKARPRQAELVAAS
UniProt Q9BWS9: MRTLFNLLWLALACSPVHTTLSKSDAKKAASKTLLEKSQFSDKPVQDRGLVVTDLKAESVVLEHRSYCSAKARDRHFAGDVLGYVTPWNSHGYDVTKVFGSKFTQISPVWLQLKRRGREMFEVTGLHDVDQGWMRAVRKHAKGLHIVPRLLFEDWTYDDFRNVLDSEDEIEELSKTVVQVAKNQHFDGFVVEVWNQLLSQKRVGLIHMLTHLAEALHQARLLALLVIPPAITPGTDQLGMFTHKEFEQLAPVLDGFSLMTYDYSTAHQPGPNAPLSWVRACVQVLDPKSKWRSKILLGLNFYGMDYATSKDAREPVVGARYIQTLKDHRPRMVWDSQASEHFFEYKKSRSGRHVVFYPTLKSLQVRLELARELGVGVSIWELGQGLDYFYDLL
UniProt Q14677: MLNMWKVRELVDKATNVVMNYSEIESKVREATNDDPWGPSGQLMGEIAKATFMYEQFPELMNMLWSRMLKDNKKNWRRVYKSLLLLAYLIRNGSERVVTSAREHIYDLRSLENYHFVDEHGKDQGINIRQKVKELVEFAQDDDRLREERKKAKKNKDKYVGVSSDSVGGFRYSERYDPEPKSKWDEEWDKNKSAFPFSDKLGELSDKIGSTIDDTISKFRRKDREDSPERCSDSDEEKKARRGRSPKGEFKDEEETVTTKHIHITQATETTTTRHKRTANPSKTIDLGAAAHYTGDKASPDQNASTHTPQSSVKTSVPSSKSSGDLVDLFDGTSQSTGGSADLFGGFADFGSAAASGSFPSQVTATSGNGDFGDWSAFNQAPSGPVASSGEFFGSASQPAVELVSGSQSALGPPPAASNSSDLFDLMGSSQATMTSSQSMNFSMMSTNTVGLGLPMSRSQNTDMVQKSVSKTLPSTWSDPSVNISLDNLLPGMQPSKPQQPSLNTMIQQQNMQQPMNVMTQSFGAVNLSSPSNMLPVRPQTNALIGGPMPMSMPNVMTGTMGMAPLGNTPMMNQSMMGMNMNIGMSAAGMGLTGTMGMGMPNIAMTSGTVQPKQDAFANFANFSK
UniProt P09326: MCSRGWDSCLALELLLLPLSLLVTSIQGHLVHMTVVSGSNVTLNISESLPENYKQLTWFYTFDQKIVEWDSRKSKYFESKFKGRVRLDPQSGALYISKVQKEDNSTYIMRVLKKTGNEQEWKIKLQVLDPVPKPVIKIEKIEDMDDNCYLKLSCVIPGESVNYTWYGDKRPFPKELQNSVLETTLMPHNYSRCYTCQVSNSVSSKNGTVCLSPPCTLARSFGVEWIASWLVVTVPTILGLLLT
UniProt Q8WTW3: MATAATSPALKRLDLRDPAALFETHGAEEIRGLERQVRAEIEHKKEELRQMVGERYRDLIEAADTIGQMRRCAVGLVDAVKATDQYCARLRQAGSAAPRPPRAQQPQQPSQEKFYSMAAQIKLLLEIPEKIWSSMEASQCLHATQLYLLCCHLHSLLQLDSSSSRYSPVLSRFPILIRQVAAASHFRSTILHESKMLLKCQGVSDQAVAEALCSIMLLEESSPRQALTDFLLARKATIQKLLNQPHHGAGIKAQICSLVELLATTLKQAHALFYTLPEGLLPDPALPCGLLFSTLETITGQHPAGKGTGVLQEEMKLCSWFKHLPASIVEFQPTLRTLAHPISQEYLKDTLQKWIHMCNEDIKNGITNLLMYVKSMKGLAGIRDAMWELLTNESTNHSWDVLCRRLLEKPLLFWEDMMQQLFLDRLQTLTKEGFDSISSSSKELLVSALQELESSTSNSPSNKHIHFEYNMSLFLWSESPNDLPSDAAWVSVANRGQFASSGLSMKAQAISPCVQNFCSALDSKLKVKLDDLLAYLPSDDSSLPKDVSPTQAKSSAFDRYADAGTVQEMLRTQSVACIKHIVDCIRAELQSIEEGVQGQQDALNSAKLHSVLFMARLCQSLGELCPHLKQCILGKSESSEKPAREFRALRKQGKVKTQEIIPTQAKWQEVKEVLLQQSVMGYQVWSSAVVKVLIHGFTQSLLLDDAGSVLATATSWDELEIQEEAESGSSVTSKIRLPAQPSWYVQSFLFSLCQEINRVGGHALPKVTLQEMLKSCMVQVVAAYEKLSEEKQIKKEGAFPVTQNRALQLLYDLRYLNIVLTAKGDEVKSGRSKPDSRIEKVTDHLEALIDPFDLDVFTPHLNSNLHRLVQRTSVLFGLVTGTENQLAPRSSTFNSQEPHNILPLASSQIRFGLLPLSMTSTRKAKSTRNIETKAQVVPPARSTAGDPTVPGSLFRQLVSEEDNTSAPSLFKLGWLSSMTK
UniProt P08962, whole entry: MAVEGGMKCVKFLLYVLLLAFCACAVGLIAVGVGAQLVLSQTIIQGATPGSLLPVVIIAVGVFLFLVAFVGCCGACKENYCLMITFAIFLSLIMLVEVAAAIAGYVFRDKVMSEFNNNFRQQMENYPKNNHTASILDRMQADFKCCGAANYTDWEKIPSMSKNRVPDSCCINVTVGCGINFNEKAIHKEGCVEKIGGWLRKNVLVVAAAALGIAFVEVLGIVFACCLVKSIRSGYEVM
UniProt Q9NWW5: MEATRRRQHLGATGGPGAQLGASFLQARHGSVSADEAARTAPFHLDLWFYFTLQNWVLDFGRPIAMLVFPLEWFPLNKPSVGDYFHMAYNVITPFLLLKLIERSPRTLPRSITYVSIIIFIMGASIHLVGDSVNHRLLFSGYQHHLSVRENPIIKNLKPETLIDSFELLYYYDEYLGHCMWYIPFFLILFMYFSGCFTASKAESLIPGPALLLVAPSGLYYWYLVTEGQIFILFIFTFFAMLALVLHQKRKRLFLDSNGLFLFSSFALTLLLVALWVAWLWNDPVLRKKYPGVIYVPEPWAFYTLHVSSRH
UniProt Q08722, whole entry: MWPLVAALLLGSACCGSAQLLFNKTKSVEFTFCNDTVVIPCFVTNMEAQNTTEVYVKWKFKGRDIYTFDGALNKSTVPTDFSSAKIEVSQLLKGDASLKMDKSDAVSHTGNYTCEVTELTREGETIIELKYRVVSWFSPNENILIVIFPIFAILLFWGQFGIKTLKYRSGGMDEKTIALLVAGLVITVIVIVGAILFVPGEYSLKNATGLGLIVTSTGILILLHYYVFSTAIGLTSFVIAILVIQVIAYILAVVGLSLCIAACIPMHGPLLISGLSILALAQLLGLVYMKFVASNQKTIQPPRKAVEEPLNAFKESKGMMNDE

These targets were tested with COc1ccc(Cn2ccc3ccc(C(=O)NO)cc32)cc1 (assay: dose-dependent thermal stabilisation call (2D-TPP, DLPTP, 10% FDR) (binary (1 = stabilised)); higher = stabilised by the compound). Conditions: system: HL-60 intact cells; concentration range 0.04-10 µM.

Target	dose-dependent thermal stabilisation call
CHTF18 (UniProt Q8WVB6)	inactive: 0
CCDC86 (UniProt Q9H6F5)	inactive: 0
CEP55 (UniProt Q53EZ4)	inactive: 0
CDYL (UniProt Q9Y232)	inactive: 0
CCRN4L (UniProt Q9UK39)	inactive: 0
CCNH (UniProt P51946)	inactive: 0
CCDC127 (UniProt Q96BQ5)	inactive: 0
CLN5 (UniProt O75503)	inactive: 0
CDC27 (UniProt P30260)	inactive: 0
CCDC53 (UniProt Q9Y3C0)	inactive: 0
CNOT3 (UniProt O75175)	inactive: 0
CCDC88C (UniProt Q9P219)	inactive: 0
COMMD10 (UniProt Q9Y6G5)	inactive: 0
COL4A3BP (UniProt Q9Y5P4)	inactive: 0
CD244 (UniProt Q9BZW8)	inactive: 0
COG7 (UniProt P83436)	inactive: 0
CD99 (UniProt P14209)	inactive: 0
CLCN3 (UniProt P51790)	inactive: 0
CHD8 (UniProt Q9HCK8)	inactive: 0

An excerpt of these results, with each value named.
CCRN4L (UniProt Q9UK39)
  dose-dependent thermal stabilisation call: inactive: 0
CCNH (UniProt P51946)
  dose-dependent thermal stabilisation call: inactive: 0
CCDC88C (UniProt Q9P219)
  dose-dependent thermal stabilisation call: inactive: 0

Later entries.

Target	dose-dependent thermal stabilisation call
CLPX (UniProt O76031)	inactive: 0
CHMP6 (UniProt Q96FZ7)	inactive: 0
CLSTN1 (UniProt O94985)	inactive: 0
CHEK2 (UniProt O96017)	inactive: 0
CHID1 (UniProt Q9BWS9)	inactive: 0
CLINT1 (UniProt Q14677)	inactive: 0
CEP110	inactive: 0
CD48 (UniProt P09326)	inactive: 0
CCDC61 (UniProt Q9Y6R9)	inactive: 0
CHD2 (UniProt O14647)	inactive: 0
COG1 (UniProt Q8WTW3)	inactive: 0
CD46 (UniProt P15529)	inactive: 0
CHERP (UniProt Q8IWX8)	inactive: 0
CD63 (UniProt P08962)	inactive: 0
CLN6 (UniProt Q9NWW5)	inactive: 0
COG3 (UniProt Q96JB2)	inactive: 0
CDIPT (UniProt O14735)	inactive: 0
CD151 (UniProt P48509)	inactive: 0
CD47 (UniProt Q08722)	inactive: 0
